# Reference: publication PMC10373645
# Positions count from the first letter of the chain named. No constants are given. Whether binding was seen depends on the method and setting. Binding seen in cells or lysates may run through a third protein. Some entries that bind do so weakly or less than the wild type. Where a sequence is shown, tags or fusion partners need not be part of it.
# T1: Protein A-tagged Sx16 (residues 1-279 of Sx16, fused to two copies of Protein-A via a thrombin cleavage site) (mouse) (UniProt Q8BVI5)
# T1 sequence: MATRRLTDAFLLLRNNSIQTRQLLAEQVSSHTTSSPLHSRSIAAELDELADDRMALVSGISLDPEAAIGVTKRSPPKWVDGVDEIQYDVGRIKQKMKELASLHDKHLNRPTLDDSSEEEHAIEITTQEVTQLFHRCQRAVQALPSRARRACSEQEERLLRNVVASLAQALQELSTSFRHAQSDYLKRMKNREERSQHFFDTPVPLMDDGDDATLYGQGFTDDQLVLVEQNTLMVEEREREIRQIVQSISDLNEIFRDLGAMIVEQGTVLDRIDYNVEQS
# T2: Protein A-tagged Sx16-T7D (phospho-mimetic mutant, truncated Sx16 lacking the transmembrane domain) (mouse) (UniProt Q8BVI5)
# T2 sequence: T1 sequence with T7D
# B1: HA-tagged human mVps45 expressed in yeast (protein, UniProt Q9NRW7 1-570)
# chain: MNVVFAVKQYISKMIEDSGPGMKVLLMDKETTGIVSMVYTQSEILQKEVYLFERIDSQNREIMKHLKAICFLRPTKENVDYIIQELRRPKYTIYFIYFSNVISKSDVKSLAEADEQEVVAEVQEFYGDYIAVNPHLFSLNILGCCQGRNWDPAQLSRTTQGLTALLLSLKKCPMIRYQLSSEAAKRLAECVKQVITKEYELFEFRRTEVPPLLLILDRCDDAITPLLNQWTYQAMVHELLGINNNRIDLSRVPGISKDLREVVLSAENDEFYANNMYLNFAEIGSNIKNLMEDFQKKKPKEQQKLESIADMKAFVENYPQFKKMSGTVSKHVTVVGELSRLVSERNLLEVSEVEQELACQNDHSSALQNIKRLLQNPKVTEFDAARLVMLYALHYERHSSNSLPGLMMDLRNKGVSEKYRKLVSAVVEYGGKRVRGSDLFSPKDAVAITKQFLKGLKGVENVYTQHQPFLHETLDHLIKGRLKENLYPYLGPSTLRDRPQDIIVFVIGGATYEEALTVYNLNRTTPGVRIVLGGTTVHNTKSFLEEVLASGLHSRSKESSQVTSRSASRR
# Columns and labels:
# [1] = target: T1, Protein A-tagged Sx16 (residues 1-279 of Sx16, fused to two copies of Protein-A via a thrombin cleavage site) (mouse); assay: pull-down; 250 µg yeast lysate expressing HA-mVps45 incubated with 20, 15, 10, 5, 2.5 and 1 µg of PrA-tagged Sx16 species for 2 h on ice; PrA-tagged species captured on IgG-Sepharose beads, washed, eluted by boiling in SDS-PAGE sample buffer; anti-HA immunoblot; only the target purified
# [2] = target: T2, Protein A-tagged Sx16-T7D (phospho-mimetic mutant, truncated Sx16 lacking the transmembrane domain) (mouse); assay: as above
binder,measurement,setting,value
B1,binding,[1],binds
same,binding,[2],binds
